Some peptides are written in HELM: one residue between dots, names in brackets for other building blocks, links after the first $.
Assay: general procedure: Fmoc solid-phase peptide synthesis; TentaGel S RAM (0.25 mmol/g); TentaGel RAM (0.18 mmol/g); TBTU or HATU with NMM; HBTU/HOBt with DIPEA
Conditions: conjugation step

Substance	conjugation yield
PEG2-IK(PEG3-Cys-4Abu-Dig)-Pqa-RHYLNWVTRQ-MeArg-Y-NH2	25%
PEPTIDE1{[ac].I.K.[Pqa].R.H.Y.L.N.W.V.T.R.Q.[NMeArg].Y.[am]}|PEPTIDE2{[Dig3cme].[PEG3]}$PEPTIDE1,PEPTIDE2,3:R3-2:R2$$$V2.0	25%

Source: patent publication US10806795B2 (Hoffmann-La Roche Inc., priority 2014, dated 2020)
